Test results: article doi:10.1101/2022.10.10.511527
Results are given in words; binding and its absence hold for the method and conditions named. Binding seen in cells or lysates may run through a third protein. Here binding means that the protein was enriched with, or labelled near, the bait; the list need not be complete. For some assays here: Tags and fused reporters may be left off the sequences shown.

Amino acid sequences for entries named in this document (tags omitted).
UniProt Q9D4H8: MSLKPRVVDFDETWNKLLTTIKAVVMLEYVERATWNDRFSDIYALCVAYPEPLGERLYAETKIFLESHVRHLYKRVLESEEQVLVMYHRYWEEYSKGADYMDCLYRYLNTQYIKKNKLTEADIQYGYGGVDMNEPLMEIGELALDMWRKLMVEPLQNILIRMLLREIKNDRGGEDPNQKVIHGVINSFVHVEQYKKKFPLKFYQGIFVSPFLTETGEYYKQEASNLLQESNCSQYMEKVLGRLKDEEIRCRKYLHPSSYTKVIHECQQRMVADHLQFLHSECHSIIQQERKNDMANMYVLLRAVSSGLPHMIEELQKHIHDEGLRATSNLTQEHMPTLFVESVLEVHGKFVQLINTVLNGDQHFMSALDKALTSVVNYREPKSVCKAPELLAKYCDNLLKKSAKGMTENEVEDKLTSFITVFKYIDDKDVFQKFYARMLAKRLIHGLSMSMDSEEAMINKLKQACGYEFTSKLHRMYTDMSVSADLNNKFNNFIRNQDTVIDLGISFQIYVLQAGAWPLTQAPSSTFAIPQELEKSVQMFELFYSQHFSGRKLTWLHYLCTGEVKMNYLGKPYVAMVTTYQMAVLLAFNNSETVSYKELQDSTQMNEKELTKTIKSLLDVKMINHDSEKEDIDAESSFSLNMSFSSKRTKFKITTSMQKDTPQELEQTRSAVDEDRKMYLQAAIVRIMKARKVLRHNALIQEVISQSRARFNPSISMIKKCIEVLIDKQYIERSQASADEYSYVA

T1: HA/FLAG-PRAMEL7ΔN, one transgene copy in the Rosa26 locus of mouse ESCs (ESC+H/F-Pramel7ΔN) (mouse) (UniProt Q810Y8)
T1 sequence: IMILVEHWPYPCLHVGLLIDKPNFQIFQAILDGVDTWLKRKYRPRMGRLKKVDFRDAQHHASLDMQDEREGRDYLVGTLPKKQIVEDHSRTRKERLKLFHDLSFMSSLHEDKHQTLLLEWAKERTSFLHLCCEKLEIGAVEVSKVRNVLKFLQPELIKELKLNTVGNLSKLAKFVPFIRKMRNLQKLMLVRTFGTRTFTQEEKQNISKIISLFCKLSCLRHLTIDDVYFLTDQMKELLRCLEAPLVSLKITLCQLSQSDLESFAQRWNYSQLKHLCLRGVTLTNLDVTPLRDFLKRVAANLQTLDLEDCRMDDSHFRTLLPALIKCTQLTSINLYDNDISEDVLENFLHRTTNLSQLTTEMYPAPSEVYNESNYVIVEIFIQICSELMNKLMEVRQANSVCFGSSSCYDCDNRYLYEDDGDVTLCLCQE

B1: SND1, endogenous in mouse ESCs (protein, UniProt Q78PY7 1-910)
chain: MASSAQSSGSSGGPAVPTVQRGIVKMVLSGCAIIVRGQPRGGPPPERQINLSNIRAGNLARRAAATQPDGKDTPDEPWAFPAREFLRKKLIGKEVCFTIENKTPQGREYGMIYLGKDTNGENIAESLVAEGLATRREGMRANNPEQNRLSECEEQAKASKKGMWSEGNGSHTIRDLKYTIENPRHFVDSHHQKPVNAIIEHVRDGSVVRALLLPGHHLVTVMLSGIKCPTFRRETDGSETPEPFAAEAKFFTESRLLQRDVQIILESCHNQNLLGTILHPNGNITELLLKEGFARCVDWSIAVYTRGAEKLRAAERFAKERRLRIWRDYVPPTANLDQKDKQFVAKVMQVLNADAIVVKLNSGDYKTIHLSSIRPPRLEGDNIQDKNKKLRPLYDIPYMFEAREFLRKKLIGKKVNVTVDYIRPASPATETVPAFSERTCATVTIGGINIAEALVSKGLATVIRYRQDDDQRSSHYDELLAAEARAIKNGKGLHSKKEVPIHRVADISGDTQKAKQFLPFLQRAGRSEAVVEYVFSGSRLKLYLPKETCLITFLLAGIECPRGARNLPGLVQEGEPFSEEATLFTKELVLQREVEVEVESMDKAGNFIGWLHMDGANLSVLLVEQALSKVHFTAERSAYYKPLLSAEEAAKQRKEKVWAHYEERPVEEVMPVLEEKERSASYKPVFVTEITDDLHFYVQDVETGTQLEKLMENMRNDISSHPPVEGSYAPRRGEFCIAKFVDGEWYRARVEKVESPAKVHVFYIDYGNREILPSTRLGTLPPAFSTRVLPAQATEYAFAFIQVPQDEDARTDAVDSVVRDIQNTQCLLNVEHLSASCPHVTLQFADSKGDVGLGLVKEGLVMVEVRKEKQFQKVITEYLNAQESAKSARLNLWRYGDFRADDADEFGYSR
B2: NOP2, endogenous in mouse ESCs (protein, UniProt Q922K7 1-793)
chain: MGRKLDPTKKEKRGPGRKARKQKGAETELVRFLPAAGDENSKRLSSRARKRAAKRRAGSVDVPKPNKSPGIKTLPGELSKGAVQARGKKRPAPIQNSDGDEEEDSGEDDVVTQGDLWGSEDSDEDMVDDYGAASNSEDEEEKLLPIERAALKQKAQDATAGVLWNEEDTDEDEDDDGVSPESHPRKDDKAEGDLQINVEDEEAFVLPPAGETDQDGQAPDLQRVHKRIQDIVGVLRDFGAQREEGRSRAEYLSRLQKDLATYYSYGDFLLSKLMELFPLSELIEFLEANEVPRPITLRTNTLKTRRRDLAQLLINRGVNLDPLGKWSKSGLVVYDSSVPIGATPEYLAGHYMLQGASSMLPVMALAPQEHERILDMCCAPGGKTSYIAQLMKNTGVILANDANADRLKSVVGNLHRLGVTNTIISHYDGRQFPKVVGGFDRVLLDAPCSGTGVISKDPAVKTNKDEKDIQRCAHLQKELLLSAIDSVNAASKTGGYLVYCTCSITVEENEWVVDYALKKRNVRLVPTGLDFGQEGFTRFQARRFHPTLRSTRRFYPHTHNMDGFFIAKFKKFSNSIPQPHAGNSAAATPTEPDLKDQVTPKSENGSQPTKKARGAVKAKQQLLRQPHSKKPFQKLNGIAKGPGLSTEPSVPDAQVSTRPSQSAGNADVNSKRKRSEKLKQRGPKWKPSKEAAVPKPSAPSRVEDSGTPVPTPSEIRAAPRPKDCAPSLGKAKKKQKGKQQLAQQPANGAAPLKEDAVSKGPSAPFVSPHSSTRPPPAKRRKSMTKGNSQPLLS
B3: ALDH2, endogenous in mouse ESCs (protein, UniProt P47738 20-519)
chain: SAAATSAVPAPNHQPEVFCNQIFINNEWHDAVSRKTFPTVNPSTGEVICQVAEGNKEDVDKAVKAARAAFQLGSPWRRMDASDRGRLLYRLADLIERDRTYLAALETLDNGKPYVISYLVDLDMVLKCLRYYAGWADKYHGKTIPIDGDFFSYTRHEPVGVCGQIIPWNFPLLMQAWKLGPALATGNVVVMKVAEQTPLTALYVANLIKEAGFPPGVVNIVPGFGPTAGAAIASHEGVDKVAFTGSTEVGHLIQVAAGSSNLKRVTLELGGKSPNIIMSDADMDWAVEQAHFALFFNQGQCCCAGSRTFVQENVYDEFVERSVARAKSRVVGNPFDSRTEQGPQVDETQFKKILGYIKSGQQEGAKLLCGGGAAADRGYFIQPTVFGDVKDGMTIAKEEIFGPVMQILKFKTIEEVVGRANDSKYGLAAAVFTKDLDKANYLSQALQAGTVWINCYDVFGAQSPFGGYKMSGSGRELGEYGLQAYTEVKTVTVKVPQKNS
B4: UHRF1, endogenous in mouse ESCs (protein, UniProt Q8VDF2 1-782)
chain: MWIQVRTMDGKETHTVNSLSRLTKVQELRKKIEEVFHVEPQLQRLFYRGKQMEDGHTLFDYDVRLNDTIQLLVRQSLALPLSTKERDSELSDSDSGYGVGHSESDKSSTHGEGAAEADDKTVWEDTDLGLYKVNEYVDVRDNIFGAWFEAQVVQVQKRALSEDEPCSSSAVKTSEDDIMYHVKYDDYPEHGVDIVKAKNVRARARTVIPWENLEVGQVVMANYNVDYPRKRGFWYDVEICRKRQTRTARELYGNIRLLNDSQLNNCRIMFVDEVLMIELPKERRPLIASPSQPPPALRNTGKSGPSCRFCKDDENKPCRKCACHVCGGREAPEKQLLCDECDMAFHLYCLKPPLTSVPPEPEWYCPSCRTDSSEVVQAGEKLKESKKKAKMASATSSSRRDWGKGMACVGRTTECTIVPANHFGPIPGVPVGTMWRFRVQVSESGVHRPHVAGIHGRSNDGAYSLVLAGGYEDDVDNGNYFTYTGSGGRDLSGNKRTAGQSSDQKLTNNNRALALNCHSPINEKGAEAEDWRQGKPVRVVRNMKGGKHSKYAPAEGNRYDGIYKVVKYWPERGKSGFLVWRYLLRRDDTEPEPWTREGKDRTRQLGLTMQYPEGYLEALANKEKSRKRPAKALEQGPSSSKTGKSKQKSTGPTLSSPRASKKSKLEPYTLSEQQANLIKEDKGNAKLWDDVLTSLQDGPYQIFLSKVKEAFQCICCQELVFRPVTTVCQHNVCKDCLDRSFRAQVFSCPACRFELDHSSPTRVNQPLQTILNQLFPGYGSGR

biological target: T1, HA/FLAG-PRAMEL7ΔN, one transgene copy in the Rosa26 locus of mouse ESCs (ESC+H/F-Pramel7ΔN) (mouse); assay: affinity purification with mass spectrometry

Row | binding | Binder
1 | binds | B1
2 | binds | B2
3 | binds | B3
4 | binds | B4

biological target: Cullin2 (CUL2), endogenous in mouse ESCs (mouse (endogenous in E14 ESCs)) (UniProt Q9D4H8); assay: affinity purification with mass spectrometry

Row | binding | Binder
5 | binds | B1
6 | binds | B2
7 | binds | B3
8 | binds | B4
